The record followed here is PubChem BioAssay AID2685 (National Center for Advancing Translational Sciences (NCATS), 2010).

The AC50 is the midpoint of the concentration-response curve, whichever way the signal moves.

Some of the results follow. The main result of the screen is listed elsewhere. These columns were measured beside it and carry no call. Compounds called inactive in the main read-out are mostly missing here. Words in brackets tell the shape of the fitted curve; partial curves, single points and poor fits give uncertain potencies.

A short description of the assay: qHTS Assay for Lipid Storage Modulators in Drosophila S3 Cells.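 For cell number change: cells counted by Cell Tracker Red CMTPX staining in the red channel.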 The note with it: BODIPY lipid droplet fluorescence, 18-24 h; for cell number change: measured here: cell count max response, cells fed with added oleic acid. In a few lines: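 Drosophila S3 cells loaded with oleic acid (400 uM, as added) and compounds at several concentrations; lipid droplets imaged by 488-nm laser-scanning cytometry, 500–530 nm intensity and object ratio to cell channel. Percent activity normalized to 20 uM Triacsin C.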
On the technique in general: In qHTS, concentration-response curves come from the screen itself.

The mark [1] stands for this setting: measured here: cell number channel AC50, cells fed with added oleic acid.
Where [2] appears, read: measured here: lipid fluorescence (Fed channel) AC50, cells fed with added oleic acid.

In the case of `O=C(CCC1CCCCC1)NCc1cccs1`, the cell number change stood at 51.8%. For the same compound, the AC50 under setting [1] is 29.1 µM [rising, single point].

`CCc1noc(C)c1C(=O)OCC(=O)NCc1ccccc1`: the cell number change worked out at 2.77%. The AC50 under setting [2] was 16.4 µM [rising, single point].

Turning to `COc1ccc(C(=O)CCC(=O)N2CCN(c3cccc(Cl)c3)CC2)cc1`, the cell number change was -1.15%. In addition, the AC50 under setting [2] was 9.2 µM [falling, partial curve].

Take `CCOC(=O)CNC(=O)CSc1nnnn1-c1ccc(C)c(C)c1`: the cell number change was -9.14%. The AC50 under setting [2] was 1.16 µM [rising, full curve].

Turning to `Cc1cccc(C2c3[nH]c4ccccc4c3CCN2C(=O)CN2CCOC2=O)n1` (stereo not drawn), the cell number change was 11.5%. Under setting [2], the AC50 is 2.59 µM [rising, partial curve, poor fit].

For the compound `CNC(=O)COC(=O)CCC(=O)c1cccs1`, the cell number change is -107%. For the same compound, under setting [1], the AC50 is 18.4 µM [falling, partial curve, poor fit]. The AC50 under setting [2] is 32.6 µM [falling, partial curve, poor fit].

Turning to `COc1ccc(N/C(=N\c2nc(C)cc(C)n2)NC(C)=O)cc1OC`, under setting [2], the AC50 is 0.058 µM [falling, full curve, poor fit].

On to `COC(=O)c1sc(N)c(C(=O)OC)c1Cn1ncc(Cl)c(Cl)c1=O`, for which the cell number change was -45.5%. For the same compound, the AC50 under setting [1] is 29.1 µM [falling, single point]. Further, the AC50 under setting [2] was 29.1 µM [falling, single point].

Regarding `c1ccc(Nc2cc(-c3ccccc3)nc3ncnn23)cc1`, the cell number change was -12.1%. Moreover, the AC50 under setting [2] is 1.16 µM [rising, full curve].

`S=C(NCCc1ccccc1)N1CCCCC1`: the cell number change was -32.1%.

Turning to `Cc1cccc(CN2CCN(CC(=O)NCc3cccs3)C2=O)c1`, the cell number change was -3.12%. Also, the AC50 under setting [2] was 3.66 µM [falling, single point].

On to `CC(C)c1ccccc1NS(=O)(=O)N(C)C`, for which the AC50 reads like this: under setting [1], 1.46 µM [falling, partial curve, poor fit]; under setting [2], 0.82 µM [falling, full curve].

Consider `Cc1c(Cc2ccccc2)c(=O)oc2cc(OC(=O)c3ccccc3)ccc12`, for which the cell number change was -25.1%. In addition, the AC50 under setting [1] is 0.259 µM [falling, full curve]. The AC50 under setting [2] is 0.092 µM [falling, full curve, poor fit].

For the compound `CCc1ccccc1NC(=S)N(CCCN1CCOCC1)Cc1ccccn1`, the cell number change is 96%. For the same compound, the AC50 under setting [1] was 29.1 µM [rising, single point]. Also, the AC50 under setting [2] was 8.2 µM [rising, partial curve].

On to `COc1ccc(NC(=S)N2CCN(S(=O)(=O)c3ccc(F)cc3)CC2)cc1`, for which the cell number change was 21.7%.

As to `COc1ccc(S(=O)(=O)CC2(O)CCN(C(=O)CC(C)C)CC2)cc1`, the cell number change was -56.3%. In addition, the AC50 under setting [1] was 29.1 µM [falling, single point].

Regarding `O=C(Nc1cccc(NC(=O)c2cccs2)c1)c1ccc([N+](=O)[O-])o1`, the cell number change was -46.4%. Also, under setting [1], the AC50 was 7.31 µM [falling, partial curve]. Besides, the AC50 under setting [2] was 4.61 µM [falling, full curve].

Consider `Cc1csc2nc(O)c(C(=O)NCCCc3ccccc3)c(=O)n12`, for which the AC50 under setting [1] was 0.00651 µM [falling, full curve, poor fit].

With `COc1ccc2nc(NC(=O)C3=NN(c4ccccc4)C(=O)CC3)sc2c1`, the cell number change was 35.5%. Also, under setting [1], the AC50 was 16.4 µM [rising, single point]. In addition, under setting [2], the AC50 was 16.4 µM [rising, partial curve].

In the case of `COc1cccc(OC)c1C(=O)Nc1cc2c(cc1N1CCOCC1)n(C)c(=O)n2C`, the cell number change was found to be 6.49%. Besides, the AC50 under setting [2] is 29.1 µM [falling, single point].

In the case of `O=C(OC1CCOC1=O)c1cncc(Br)c1` (stereo not drawn), the cell number change was -2.45%. In addition, the concentration at half-maximal activity (AC50) under setting [2] was 7.31 µM [falling, partial curve].

For the compound `N/C(=N\NC(=O)Nc1ccccc1)c1ccccn1`, the cell number change was found to be 3.27%. Moreover, the AC50 under setting [1] is 0.146 µM [falling, full curve, poor fit].

With `Cc1ccc(C(=O)Nc2cccc(C(=O)O)c2)cc1S(=O)(=O)N1CCCCC1`, the cell number change was determined as 3.44%. For the same compound, under setting [2], the half-maximal activity concentration (AC50) was 6.51 µM [rising, single point].

For the compound `O=C(Nc1ccc2c(c1)OCO2)c1ccc([N+](=O)[O-])cc1[N+](=O)[O-]`, the cell number change was -25.7%. Under setting [2], the AC50 was 29.1 µM [falling, single point].

With `O=C1CSC(=Nc2ccc(Cl)cc2)N1Cc1cccnc1`, the cell number change amounted to 37.2%. Besides, under setting [1], the AC50 was 29.1 µM [rising, single point].

In the case of `COc1cc(O)c(CCC(=O)c2ccc(OC)c(OC)c2)c(OC)c1`, the cell number change is -30.2%. Moreover, the AC50 under setting [1] is 9.2 µM [falling, single point].

In the case of `NS(=O)(=O)OCC(Cc1ccccc1)N1C(=O)c2ccccc2C1=O` (stereo not drawn), the cell number change was -0.971%. For the same compound, under setting [2], the AC50 was 29.1 µM [rising, single point].

For the compound `Cc1cc(C(=O)NNc2ccc(F)cc2F)no1`, the cell number change was 25%. The AC50 under setting [2] is 14.6 µM [rising, single point].

On to `COc1ccc(OC)c(CCNC(=O)c2ccc(CS(=O)(=O)c3ccc(Br)cc3)o2)c1`, for which the cell number change is -34.8%. Further, under setting [1], the AC50 was 0.517 µM [falling, full curve, poor fit]. Moreover, the AC50 under setting [2] is 32.6 µM [falling, single point].

In the case of `O=C(COC(=O)c1ccccc1F)NC1CC1`, the cell number change was -39%. Also, the AC50 under setting [1] is 0.366 µM [falling, full curve, poor fit].

On to `CCC(=O)Nc1nnc(-c2ccco2)o1`, for which the cell number change is -58.6%. In addition, the AC50 under setting [1] was 1.16 µM [falling, full curve].

Turning to `COc1ccc(SN=C2C(C)=CC(=O)C=C2C)cc1`, the cell number change is -53%. Besides, the AC50 under setting [1] was 1.64 µM [falling, partial curve]. Also, the AC50 under setting [2] was 23.1 µM [falling, single point].

As for `Cc1ccc(C(=O)NCCc2nnc3ccc(N4CCCC4)nn23)cc1`, the cell number change was -0.54%. The AC50 under setting [2] was 6.51 µM [falling, single point].

`COc1ccc(N=Nc2c(-c3ccc(OC)cc3)[nH]oc2=O)cc1`: the cell number change came to 148%. In addition, under setting [1], the AC50 is 29.1 µM [rising, single point]. Also, under setting [2], the AC50 is 32.6 µM [falling, single point].

With `O=c1ccc2cc(S(=O)(=O)N3CCN(c4cc(Cl)ccc4Cl)CC3)ccc2o1`, the cell number change is 151%. Under setting [1], the AC50 was 4.11 µM [falling, partial curve]. Further, the AC50 under setting [2] was 23.1 µM [rising, single point].

For `Cc1[nH]c(=O)[nH]c(=O)c1/C=N/NC(=O)CCNC(=O)OC(C)(C)C`, the cell number change came out at 12.4%. For the same compound, under setting [2], the half-maximal activity concentration (AC50) is 18.4 µM [rising, single point].
